Measured data: PubChem BioAssay AID652243 (Drosophila RNAi Screening Center, 2013)

Purpose: 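Fly regulators of androgen-dependent reporter output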 (primary screen)
Cells: Drosophila S2R+ cells
Knock-down reagent: long dsRNA against Drosophila genes
Timing: 72 h (48 h, then 24 h hormone)
Conditions: synthetic androgen R1881 at 10 nM for 24 h
Measurement: 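Firefly light from an androgen-responsive reporter and Renilla control light per well, raw and unnormalised, for each of two replicates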
Direction: firefly reporter light: higher = more light from androgen-responsive reporter; Renilla control light: higher = more constitutive control signal (cell number, transfection)
Hit rule: 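Hit when the log firefly-to-Renilla ratio dropped or increased by a fixed fold versus the mean of GFP or LacZ controls across duplicate plates; lowering cut given as 1.5 and as 3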
Calls: active = hit: reporter lowered or raised; inactive = no hit
The deposit covers about 24,000 reagents; this is an unselected part of those with a known target gene and a result. Of all reagents, 246 (1%) were called active. 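Plates not normalised; calls are printed but the firefly/Renilla ratio behind them is not deposited; fold cut for lowering reported inconsistently.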 The raw values are shown without normalisation. Names joined by + are all predicted targets of the reagent. No sequences are given here. Not given: the amount of reagent.

predicted target | amplicon | firefly reporter light, replicate 1 | firefly reporter light, replicate 2 | Renilla control light, replicate 1 | Renilla control light, replicate 2 | outcome
Mipp1 (Multiple inositol polyphosphate phosphatase 1) | DRSC11223 | 44550 | 46072 | 3.58e5 | 3.90e5 | inactive
Mipp1 (Multiple inositol polyphosphate phosphatase 1) | DRSC36771 | – | – | – | – | inactive
Mipp1 (Multiple inositol polyphosphate phosphatase 1) | DRSC36772 | – | – | – | – | inactive
blow (blown fuse) | DRSC07586 | 8.84e5 | 4.28e5 | 1.55e6 | 1.42e6 | inactive
blow (blown fuse) | DRSC27716 | 2.06e5 | 2.30e5 | 6.45e5 | 6.58e5 | inactive
CG3285 | DRSC00589 | 1.02e6 | 9.30e5 | 2.67e6 | 2.08e6 | inactive
pirk (poor Imd response upon knock-in) | DRSC04269 | 1.87e5 | 1.57e5 | 1.88e6 | 1.32e6 | inactive
COX5B (Cytochrome c oxidase subunit 5B) | DRSC02115 | 2.19e5 | 1.71e5 | 1.79e6 | 1.61e6 | inactive
spir (spire) | DRSC03619 | 1.50e5 | 2.24e5 | 1.63e6 | 1.57e6 | inactive
spir (spire) | DRSC24744 | 2.44e5 | 2.52e5 | 6.45e5 | 4.78e5 | inactive
CG14629 | DRSC18476 | 83887 | 1.32e5 | 1.74e6 | 1.56e6 | inactive
CG14629 | DRSC23909 | 6.29e5 | 7.74e5 | 9.00e5 | 8.72e5 | inactive
bdl (borderless) | DRSC00271 | 6.72e5 | 9.65e5 | 1.72e6 | 1.37e6 | inactive
ken (ken and barbie) | DRSC23196 | 5.31e5 | 4.50e5 | 9.04e5 | 8.98e5 | inactive
NdufV3 (NADH:ubiquinone oxidoreductase subunit V3) | DRSC19423 | 4.59e5 | 3.89e5 | 3.51e6 | 3.02e6 | inactive
NdufV3 (NADH:ubiquinone oxidoreductase subunit V3) | DRSC27236 | 2.84e5 | 2.37e5 | 6.60e5 | 8.13e5 | inactive
kek1 (kekkon 1) | DRSC03551 | 1.98e5 | 3.23e5 | 1.32e6 | 1.61e6 | inactive
kek1 (kekkon 1) | DRSC36699 | – | – | – | – | inactive
kek1 (kekkon 1) | DRSC36700 | – | – | – | – | inactive
CG34129 | DRSC15960 | 2.24e5 | 2.72e5 | 3.07e6 | 2.97e6 | inactive
CG34038 | DRSC38892 | 9.39e5 | 6.03e5 | 2.03e6 | 1.20e6 | inactive
Obp50b + Obp50c | DRSC21818 | 4.93e5 | 4.01e5 | 2.77e6 | 3.32e6 | inactive
CG17855 | DRSC02638 | 1.39e5 | 1.49e5 | 1.72e6 | 1.72e6 | inactive
CG17266 | DRSC04979 | 3.82e5 | 4.19e5 | 2.52e6 | 2.55e6 | inactive
CG17266 | DRSC22368 | 8.57e5 | 8.95e5 | 1.75e6 | 1.78e6 | inactive
CG17266 | DRSC24207 | 4.32e5 | 4.27e5 | 7.60e5 | 7.34e5 | inactive
EMC2B (ER membrane protein complex subunit 2B) | DRSC15506 | 1.80e5 | 1.85e5 | 1.99e6 | 2.22e6 | inactive
CG12301 | DRSC09875 | 76943 | 73014 | 3.90e5 | 3.27e5 | inactive
Cc2d2a (Coiled-coil and C2 domain containing 2A) | DRSC06750 | 81469 | 86111 | 1.80e6 | 1.80e6 | inactive
Cc2d2a (Coiled-coil and C2 domain containing 2A) | DRSC06779 | 92413 | 1.11e5 | 1.75e6 | 1.75e6 | inactive
Cc2d2a (Coiled-coil and C2 domain containing 2A) | DRSC26325 | 3.32e5 | 3.06e5 | 6.60e5 | 8.63e5 | inactive
beta4GalT7 (beta-4-galactosyltransferase 7) | DRSC14385 | 89880 | 1.37e5 | 1.40e6 | 1.59e6 | inactive
ss (spineless) | DRSC17069 | 1.83e5 | 1.54e5 | 2.44e6 | 2.34e6 | inactive
Rtc1 | DRSC20285 | 70548 | 75862 | 6.29e5 | 6.13e5 | inactive
foxo (forkhead box, sub-group O) | DRSC13017 | 5468 | 5932 | 25416 | 29068 | active
foxo (forkhead box, sub-group O) | DRSC15463 | 1.51e5 | 1.19e5 | 1.01e6 | 1.22e6 | inactive
CG6283 | DRSC16009 | 1.51e5 | 2.74e5 | 1.92e6 | 2.53e6 | inactive
CG6283 | DRSC29913 | 6.26e5 | 7.77e5 | 1.22e6 | 1.26e6 | inactive
MED25 (Mediator complex subunit 25) | DRSC22981 | 5.76e5 | 4.95e5 | 1.45e6 | 1.12e6 | inactive
MED25 (Mediator complex subunit 25) | DRSC25776 | 1.77e5 | 2.06e5 | 6.74e5 | 3.74e5 | inactive
t-Grip128 (testis-specific gamma-tubulin ring protein 128) | DRSC07853 | 2.48e5 | 73433 | 5.13e5 | 2.43e5 | inactive
t-Grip128 (testis-specific gamma-tubulin ring protein 128) | DRSC26796 | 3.08e5 | 2.72e5 | 8.18e5 | 6.00e5 | inactive
t-Grip128 (testis-specific gamma-tubulin ring protein 128) | DRSC39091 | 8.65e5 | 3.45e5 | 1.77e6 | 6.82e5 | inactive
Mco1 (Multicopper oxidase 1) | DRSC02720 | 1.44e5 | 2.31e5 | 1.83e6 | 2.34e6 | inactive
car (carnation) | DRSC20316 | 1.03e5 | 87498 | 7.47e5 | 6.50e5 | inactive
car (carnation) | DRSC26230 | 3.15e5 | 4.11e5 | 8.98e5 | 6.60e5 | inactive
Tep5Psi (Thioester-containing protein 5 pseudogene) | DRSC02183 | 1.55e5 | 1.39e5 | 1.37e6 | 2.17e6 | inactive
Tep5Psi (Thioester-containing protein 5 pseudogene) | DRSC02184 | 1.43e5 | 2.30e5 | 1.74e6 | 2.20e6 | inactive
Pura (Puratrophin-1-like) | DRSC08891 | 1.99e5 | 1.26e5 | 4.07e5 | 2.27e5 | inactive
Pura (Puratrophin-1-like) | DRSC10862 | 1.23e5 | 1.78e5 | 1.28e6 | 1.65e6 | inactive
Pura (Puratrophin-1-like) | DRSC10864 | 1.06e5 | 1.02e5 | 1.33e6 | 1.16e6 | inactive
Pura (Puratrophin-1-like) | DRSC10865 | 95541 | 85316 | 2.26e6 | 2.12e6 | active
Pura (Puratrophin-1-like) | DRSC10866 | 1.46e5 | 1.32e5 | 3.14e6 | 3.17e6 | active
Pura (Puratrophin-1-like) | DRSC26606 | 3.26e5 | 3.99e5 | 3.72e5 | 3.26e5 | inactive
CG4730 | DRSC15633 | 1.72e5 | 2.10e5 | 2.09e6 | 2.14e6 | inactive
CG4730 | DRSC24561 | 9.04e5 | 7.55e5 | 9.11e5 | 1.07e6 | inactive
Dg (Dystroglycan) | DRSC06718 | 68638 | 89731 | 1.89e6 | 1.89e6 | inactive
cutlet | DRSC00284 | 4.40e5 | 7.19e5 | 1.14e6 | 1.57e6 | inactive
cutlet | DRSC29552 | 3.25e5 | 4.56e5 | 8.30e5 | 8.30e5 | inactive

Ordered by “firefly reporter light, replicate 2” (lowest first): some entries from above.
predicted target | amplicon | firefly reporter light, replicate 1 | firefly reporter light, replicate 2 | Renilla control light, replicate 1 | Renilla control light, replicate 2 | outcome
t-Grip128 (testis-specific gamma-tubulin ring protein 128) | DRSC07853 | 2.48e5 | 73433 | 5.13e5 | 2.43e5 | inactive
car (carnation) | DRSC20316 | 1.03e5 | 87498 | 7.47e5 | 6.50e5 | inactive
Pura (Puratrophin-1-like) | DRSC08891 | 1.99e5 | 1.26e5 | 4.07e5 | 2.27e5 | inactive
Tep5Psi (Thioester-containing protein 5 pseudogene) | DRSC02183 | 1.55e5 | 1.39e5 | 1.37e6 | 2.17e6 | inactive
Tep5Psi (Thioester-containing protein 5 pseudogene) | DRSC02184 | 1.43e5 | 2.30e5 | 1.74e6 | 2.20e6 | inactive
Mco1 (Multicopper oxidase 1) | DRSC02720 | 1.44e5 | 2.31e5 | 1.83e6 | 2.34e6 | inactive
t-Grip128 (testis-specific gamma-tubulin ring protein 128) | DRSC26796 | 3.08e5 | 2.72e5 | 8.18e5 | 6.00e5 | inactive
t-Grip128 (testis-specific gamma-tubulin ring protein 128) | DRSC39091 | 8.65e5 | 3.45e5 | 1.77e6 | 6.82e5 | inactive
car (carnation) | DRSC26230 | 3.15e5 | 4.11e5 | 8.98e5 | 6.60e5 | inactive
